# Library compounds against nucleic acid targets

Source: the ROBIN nucleic acid binder screens (doi:10.1002/anie.202211358).

Targets (5′ to 3′):
T1: SAM-II riboswitch RNA pseudoknot, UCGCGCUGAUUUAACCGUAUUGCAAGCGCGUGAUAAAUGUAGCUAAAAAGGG. Hit rate about 1% of about 21,000 compounds.
T2: TPP riboswitch RNA three-way junction, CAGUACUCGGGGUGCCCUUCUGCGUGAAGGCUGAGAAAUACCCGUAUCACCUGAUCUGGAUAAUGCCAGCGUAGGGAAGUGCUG. Hit rate about 0.7% of about 24,000 compounds.

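Each compound is printed as two spots on a slide made to bind it covalently, so it has no test concentration; the read-out is fluorescence of the bound, labelled oligonucleotide. The data file lists only calls. An earlier report of the laboratory on the PreQ1, TPP and SAM-II riboswitches (doi:10.1038/s41467-019-09493-3) used 1 µM RNA for 2 h and required a mean Z-score above 3 (spot signal-to-noise against the whole library), a score well above that on a control array, and duplicate spots agreeing (coefficient of variation under 100); it then also set aside compounds that hit other targets, which this list keeps. The cut-offs behind this list may differ. The calls come from the array alone, and fixing a compound to the slide can hide its binding.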
“1” means called a hit, “0” means screened and not called a hit.
Compounds were drawn at random from those tested, without regard to their results.
A target missing from an entry has no call listed here.

{"compound": "CCOC(=O)C(=O)N1c2ccccc2C(Nc2ccccc2)CC1C", "stereo": "stereo not shown", "T1": "0", "T2": "0"}
{"compound": "Cc1ccc(NC(c2ccccc2)c2nnc(-c3ccccc3)o2)cc1F", "stereo": "stereo not shown", "T1": "0", "T2": "0"}
{"compound": "O=C(c1ccc2c(c1)CCO2)N1CCC(Cc2ccc(CO)cc2)C1", "stereo": "stereo not shown", "T1": "0", "T2": "0"}
{"compound": "CC1OC1c1ccc(-c2ccc(C3OC3C)cc2)cc1", "stereo": "stereo not shown", "T1": "0", "T2": "0"}
{"compound": "CCCSc1ncc(-c2c(C#N)c(N)nc3c2CC(N)CC3)cn1", "stereo": "stereo not shown", "T1": "0", "T2": "0"}
{"compound": "Cc1ccc(-n2nc(CO)c(C(=O)NCc3cccnc3)n2)cc1", "T2": "0"}
{"compound": "Cc1c(C(=O)N2CCOC3(CNCCOC3)C2)n(C)c2c(C)cccc12", "stereo": "stereo not shown", "T1": "0", "T2": "0"}
{"compound": "OC(COc1cccc(-c2nnco2)c1)CN1CCN(c2ccccc2F)CC1", "stereo": "stereo not shown", "T1": "0", "T2": "0"}
{"compound": "Cn1c(=O)c2c(nc(NCCO)n2CCCc2ccccc2)n(C)c1=O", "T1": "0", "T2": "0"}
{"compound": "O=S(=O)(c1ccc2nc(NCCc3ccccc3)cnc2c1)N1CCCCC1", "T1": "0", "T2": "0"}
{"compound": "CC1=CC(C)(C)Nc2ccc(OC(=O)CN3C(=O)c4ccccc4C3=O)cc21", "T1": "0", "T2": "0"}
{"compound": "COc1cc(C2C(C#N)=C(N)Oc3[nH]nc(C)c32)ccc1O", "stereo": "stereo not shown", "T1": "0", "T2": "0"}
{"compound": "c1ccc(-c2nc3c(c(NCc4ccccn4)n2)CCNC3)cc1", "T1": "0", "T2": "0"}
{"compound": "CCc1nc(N)nc(N2CCC(O)(c3ccccc3)CC2)c1C", "T1": "0", "T2": "0"}
{"compound": "N=C1OC(c2ccccc2)C(O)=C1O", "stereo": "stereo not shown", "T1": "0", "T2": "0"}
{"compound": "Cc1cccc(N(C)C(=S)Oc2ccc3ccccc3c2)c1", "T1": "0", "T2": "0"}
{"compound": "Cc1cc(S(=O)(=O)[C@H]2CS(=O)(=O)C[C@@H]2NCCc2ccc(Cl)cc2)ccc1F", "T2": "0"}
{"compound": "COc1cc(OC)c(NS(=O)(=O)c2cc(Br)cnc2N)cc1Cl", "T2": "0"}
{"compound": "Cc1ccccc1Nc1c(-c2ccsc2)nc2cccc(C)n12", "T1": "0", "T2": "0"}
{"compound": "OCCn1nc(Cc2cccc(Cl)c2)nc1-c1cnn[nH]1", "T1": "0", "T2": "0"}
{"compound": "COc1ccc(C(=S)N2CCN(c3ccccc3Cl)CC2)cc1OC", "T1": "0", "T2": "0"}
{"compound": "CN(C)CCCn1ccnc1C1CCN(c2cc3nncn3c(N)n2)CC1", "T1": "0", "T2": "0"}
{"compound": "COc1ccc2c(c1O)[C@@]13CCN(C)[C@H](C2)[C@@H]1CCC(=O)C3", "T1": "0", "T2": "0"}
{"compound": "Cc1ccc(-c2noc(-c3cccnc3NCCc3ccccc3)n2)cc1", "T2": "0"}
{"compound": "COc1ccc(-c2cc3ccccc3n2CC(O)CN2CCCCC2)cc1", "stereo": "stereo not shown", "T1": "0", "T2": "0"}
{"compound": "CCN1C(=O)C2(C(C#N)=C(N)N(c3ccc(F)c(Cl)c3)C3=C2C(=O)OC3)c2ccccc21", "stereo": "stereo not shown", "T1": "0", "T2": "0"}
{"compound": "COCCCn1c(C)c(C)c(S(=O)(=O)c2ccccc2)c1N", "T2": "0"}
{"compound": "CC(C)N1CC(=O)C(c2nc(-c3ccc(Cl)cc3)cs2)=C1N", "T2": "0"}
{"compound": "CN1CCN(C[C@@H]2CN(C(=O)CCCc3ccccc3)C[C@@H]2CO)CC1", "T1": "0", "T2": "0"}
{"compound": "Nc1nnc(SCC=Cc2ccc([N+](=O)[O-])cc2)s1", "T1": "0", "T2": "0"}
{"compound": "COc1ccc(-c2nc3c([nH]2)CCN(c2nccc(N)n2)C3)cc1", "T1": "0", "T2": "0"}
{"compound": "Cn1c(C2=C(N)N(c3ccc(Br)cc3)CC2=O)nc2ccccc21", "T2": "0"}
{"compound": "COCc1c(Br)c(C)nc2oc(C(=O)c3cccc(OC)c3)c(N)c12", "T1": "0", "T2": "0"}
{"compound": "CCCn1ncc(NC(=O)c2ccc(CN3CCNCC3(C)C)cc2)n1", "T1": "0", "T2": "0"}
{"compound": "CC(=O)c1c(C)nn(CC(O)Cn2c3c(c4cc(C)ccc42)CCCC3=O)c1C", "stereo": "stereo not shown", "T1": "0", "T2": "0"}
{"compound": "CCc1ccccc1NC1=NS(=O)(=O)C(c2ccccc2)=C1C", "T2": "1"}

Once more, the final 2:

* CC(=O)c1c(C)nn(CC(O)Cn2c3c(c4cc(C)ccc42)CCCC3=O)c1C (stereo not shown) : T1: 0; T2: 0
* CCc1ccccc1NC1=NS(=O)(=O)C(c2ccccc2)=C1C : T2: 1